Reference: PubChem BioAssay AID1259291 (Sanger Institute, 2017)
Here is a random part of 794 reagents tested. 15 of them (1.9%) were called active. 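Calls rest on knock-down alone; drug synergy scores do not affect them; drugs added a day post-transfection, DMSO vehicle as comparison.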 Not all columns of the deposit are shown. Not given: the amount of reagent, the time to read-out.

Screen: 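Find kinase and colorectal-cancer-mutated genes whose loss kills HT29 cells or aids anchor drugs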 (primary screen)
Cells: HT29 human colorectal cancer cells
Knock-down reagent: siRNA pool against human genes
Challenge: anchor drugs added a day after transfection: BYL719 at 1 µM, cetuximab at 5 µg/ml or trametinib at 10 nM, or DMSO vehicle alone
Detection: 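Replicate-averaged viability relative to non-targeting pool, robust z-score based on control wells, plus per-drug synergy score for 1 µM BYL719, 5 µg/ml cetuximab and 10 nM trametinib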
Reading the numbers: robust z-score, knock-down alone: higher = more viable cells
Hit rule: 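Essential when the robust z-score for knock-down without any drug is below -3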
Meaning of the calls: active = essential (knock-down alone); inactive = no change alone

For PIK3CG the deposit lists robust z-score, knock-down alone 0.356; inactive.
PTK7 (protein tyrosine kinase 7 (inactive)) gave robust z-score, knock-down alone 0.552; inactive.
For PRKCB (protein kinase C beta), the values are robust z-score, knock-down alone -0.403; inactive.
Silencing of THNSL1 (threonine synthase like 1) gave: robust z-score, knock-down alone 0.552; inactive.
Silencing of RIPK1 (receptor interacting serine/threonine kinase 1) gave: robust z-score, knock-down alone 0.552; inactive.
LRRK1 (leucine rich repeat kinase 1) gave robust z-score, knock-down alone 0.552; inactive.
For TNK2 (tyrosine kinase non receptor 2) the deposit lists robust z-score, knock-down alone -0.0298; inactive.
Against CAMK2N1 (calcium/calmodulin dependent protein kinase II inhibitor 1) the deposit lists robust z-score, knock-down alone 0.552; inactive.
With knock-down of EIF2AK4 (eukaryotic translation initiation factor 2 alpha kinase 4), the screen gave robust z-score, knock-down alone -0.516; inactive.
NUP107 (nucleoporin 107) gave robust z-score, knock-down alone -5.18; active.
Silencing of FXN (frataxin) resulted in: robust z-score, knock-down alone 0.552; inactive.
With knock-down of PRKCD (protein kinase C delta), the record shows robust z-score, knock-down alone 0.552; inactive.
After knock-down of GNAS (GNAS complex locus) the results were robust z-score, knock-down alone 0.552; inactive.
Depletion of CASK (calcium/calmodulin dependent serine protein kinase) came out at: robust z-score, knock-down alone -0.0651; inactive.
Silencing of TGFBR1 (transforming growth factor beta receptor 1) resulted in: robust z-score, knock-down alone 0.552; inactive.
For STK39 (serine/threonine kinase 39), the values are robust z-score, knock-down alone -1.96; inactive.
After knock-down of CLK4 (CDC like kinase 4), the record shows robust z-score, knock-down alone 0.552; inactive.
PKN2 (protein kinase N2) gave robust z-score, knock-down alone 0.552; inactive.
ULK2 (unc-51 like autophagy activating kinase 2) scored robust z-score, knock-down alone 0.552; inactive.
After knock-down of SBK1 (SH3 domain binding kinase 1), the screen gave robust z-score, knock-down alone 0.552; inactive.
Depletion of PRKD1 (protein kinase D1) resulted in: robust z-score, knock-down alone 0.552; inactive.
For CAMK2D (calcium/calmodulin dependent protein kinase II delta), the values are robust z-score, knock-down alone 0.552; inactive.
SPHK1 (sphingosine kinase 1) gave robust z-score, knock-down alone -0.735; inactive.
DAPK1 (death associated protein kinase 1) scored robust z-score, knock-down alone 0.552; inactive.
GRK4 (G protein-coupled receptor kinase 4) gave robust z-score, knock-down alone -0.146; inactive.
MYH10 (myosin heavy chain 10) gave robust z-score, knock-down alone -0.526; inactive.
PIP5K1A (phosphatidylinositol-4-phosphate 5-kinase type 1 alpha) showed robust z-score, knock-down alone -2.19; inactive.
MARK3 (microtubule affinity regulating kinase 3) gave robust z-score, knock-down alone 0.42; inactive.

Records listed so far whose target name begins with M or m:
MYH10 (myosin heavy chain 10) — robust z-score, knock-down alone = -0.526; call = inactive
MARK3 (microtubule affinity regulating kinase 3) — robust z-score, knock-down alone = 0.42; call = inactive
